The full ranking holds about 1,600 compounds; the median of “plate-normalized OD600 growth (mean of duplicates)” is about 0.31, and the lowest 2% start at about 0.23. This is one part of the list.

In this experiment the test system is Escherichia coli BW25113. In words: plate-normalized OD600 growth (mean of duplicates) (OD600 (normalized)); higher = more growth (less inhibition). Particulars: 10 µM. The protocol: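 E. coli BW25113 in LB (100 µl, 96-well, no shaking) was exposed to 10 µM of each compound (here the ChemBridge subset of a ~30,000-member library) and grown at 37°C for 24 h or 15°C for 48 h, in duplicate. Growth was read as OD600 and the duplicate ODs were normalized across screening plates to correct plate-to-plate variation.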

For `COc1ccccc1N1C(=O)CC(N2CCN(c3ccc([N+](=O)[O-])cc3)CC2)C1=O` (stereo not drawn), the “plate-normalized OD600 growth” value runs as follows: (temperature: 15°C, 48 h) 0.282; (temperature: 37°C, 24 h) 0.637.

`CC(C)Oc1ccccc1C1CC(=O)NC1=O` (stereo not drawn): the “plate-normalized OD600 growth” value (temperature: 15°C, 48 h) is 0.253 and the “plate-normalized OD600 growth” value (temperature: 37°C, 24 h) came to 0.626.

For `Cc1cccc(NC(=O)c2cccc(I)c2)c1C`, the “plate-normalized OD600 growth” value was determined as 0.26 (temperature: 15°C, 48 h) and 0.63 (temperature: 37°C, 24 h).

With `O=C(O)c1ccc(NS(=O)(=O)c2cccc(C(=O)Nc3ccccc3[N+](=O)[O-])c2)cc1`, the “plate-normalized OD600 growth” value by setting is: (temperature: 15°C, 48 h) 0.246; (temperature: 37°C, 24 h) 0.587.

Turning to `N#CC1=C(N)Oc2c(c(=O)[nH]c3ccccc23)C1c1cc(Br)cs1` (stereo not drawn), the “plate-normalized OD600 growth” value runs as follows: (temperature: 15°C, 48 h) 0.249; (temperature: 37°C, 24 h) 0.609.

`COc1ccc(OCC(O)CN2CCN(c3ccccc3)CC2)cc1` (stereo not drawn): the “plate-normalized OD600 growth” value (temperature: 15°C, 48 h) came out at 0.253 and the “plate-normalized OD600 growth” value (temperature: 37°C, 24 h) came to 0.612.

`Cc1nc(=O)c(-c2ccccc2)c(C)n1-c1ccc(C(=O)O)cc1`: the “plate-normalized OD600 growth” value runs as follows: (temperature: 15°C, 48 h) 0.28; (temperature: 37°C, 24 h) 0.639.

With `O=C1c2ccccc2-c2c1cccc2C(=O)N(CCO)CCO`, the “plate-normalized OD600 growth” value by setting is: (temperature: 15°C, 48 h) 0.241; (temperature: 37°C, 24 h) 0.627.

With `N#CC1=C(N)N2C(=C(C#N)C1c1cccs1)Sc1ccccc12` (stereo not drawn), the “plate-normalized OD600 growth” value runs as follows: (temperature: 15°C, 48 h) 0.24; (temperature: 37°C, 24 h) 0.614.

Take `CN(Cc1ccccc1)Cc1ccccn1`: the “plate-normalized OD600 growth” value (temperature: 15°C, 48 h) worked out at 0.242 and the “plate-normalized OD600 growth” value (temperature: 37°C, 24 h) is 0.622.

Turning to `NS(=O)(=O)c1ccc(NC(=O)c2ccccc2Cl)cc1`, the “plate-normalized OD600 growth” value stood at 0.24 (temperature: 15°C, 48 h) and 0.604 (temperature: 37°C, 24 h).

On to `CCN(CCN(C)C)C1CCCCCC1`, for which the “plate-normalized OD600 growth” value reads like this: (temperature: 15°C, 48 h) 0.26; (temperature: 37°C, 24 h) 0.618.

Consider `O=C(c1cccnc1)N1CCN(C(=O)c2ccco2)CC1`, for which the “plate-normalized OD600 growth” value (temperature: 15°C, 48 h) amounted to 0.24 and the “plate-normalized OD600 growth” value (temperature: 37°C, 24 h) was determined as 0.631.

For the compound `COc1ccccc1-n1c(SCC(=O)c2ccccc2)nc(O)cc1=O`, the “plate-normalized OD600 growth” value (temperature: 15°C, 48 h) amounted to 0.263 and the “plate-normalized OD600 growth” value (temperature: 37°C, 24 h) stood at 0.631.

As to `CC(C)NCC(=O)NC12CC3CC(CC(C3)C1)C2`, the “plate-normalized OD600 growth” value turned out to be 0.266 (temperature: 15°C, 48 h) and 0.656 (temperature: 37°C, 24 h).

For `Cc1ccc(C)c(C2=NNC(=O)CC2)c1`, the “plate-normalized OD600 growth” value (temperature: 15°C, 48 h) came to 0.248 and the “plate-normalized OD600 growth” value (temperature: 37°C, 24 h) amounted to 0.637.

With `CCOc1ccc(NC(=O)c2cc(C)cc(C)c2)c([N+](=O)[O-])c1`, the “plate-normalized OD600 growth” value (temperature: 15°C, 48 h) is 0.25 and the “plate-normalized OD600 growth” value (temperature: 37°C, 24 h) was determined as 0.6.

As to `COc1ccc(C(=O)O)cc1S(=O)(=O)N1CCOCC1`, the “plate-normalized OD600 growth” value (temperature: 15°C, 48 h) amounted to 0.263 and the “plate-normalized OD600 growth” value (temperature: 37°C, 24 h) was found to be 0.623.

For `CC1CCc2c(sc(NC(=O)c3c(F)c(F)c(F)c(F)c3F)c2C#N)C1` (stereo not drawn), the “plate-normalized OD600 growth” value amounted to 0.25 (temperature: 15°C, 48 h) and 0.616 (temperature: 37°C, 24 h).

Regarding `O=[N+]([O-])c1ccc(Nc2c[nH]c3ccccc23)cc1`, the “plate-normalized OD600 growth” value (temperature: 15°C, 48 h) worked out at 0.261 and the “plate-normalized OD600 growth” value (temperature: 37°C, 24 h) stood at 0.615.

Regarding `CCc1ccccc1NC(=O)c1cccc(Br)c1`, the “plate-normalized OD600 growth” value is 0.244 (temperature: 15°C, 48 h) and 0.619 (temperature: 37°C, 24 h).

Take `Cc1cccc(CN2CCN(c3ccccn3)CC2)c1`: the “plate-normalized OD600 growth” value by setting is: (temperature: 15°C, 48 h) 0.241; (temperature: 37°C, 24 h) 0.627.

In the case of `Cc1nc2c(=O)[nH]c3ccccc3c2o1`, the “plate-normalized OD600 growth” value (temperature: 15°C, 48 h) was determined as 0.249 and the “plate-normalized OD600 growth” value (temperature: 37°C, 24 h) is 0.633.

In the case of `OCCN(Cc1ccccc1)Cc1ccccc1F`, the “plate-normalized OD600 growth” value is 0.232 (temperature: 15°C, 48 h) and 0.589 (temperature: 37°C, 24 h).

As for `Nc1ccc(Br)cc1C(NCC(=O)O)c1ccccc1` (stereo not drawn), the “plate-normalized OD600 growth” value was 0.249 (temperature: 15°C, 48 h) and 0.615 (temperature: 37°C, 24 h).

Turning to `CN1CCCC1CCNC1CC2CCC1C2` (stereo not drawn), the “plate-normalized OD600 growth” value is 0.299 (temperature: 15°C, 48 h) and 0.637 (temperature: 37°C, 24 h).

As to `COc1ccc(C=C(C#N)c2nc3ccccc3[nH]2)cc1`, the “plate-normalized OD600 growth” value was 0.263 (temperature: 15°C, 48 h) and 0.626 (temperature: 37°C, 24 h).

As for `Cn1ccnc1SCC(=O)c1ccc(F)cc1`, the “plate-normalized OD600 growth” value is, setting by setting: (temperature: 15°C, 48 h) 0.265; (temperature: 37°C, 24 h) 0.622.

Turning to `NC(=O)C1CCN(Cc2c(F)cccc2Cl)CC1`, the “plate-normalized OD600 growth” value amounted to 0.278 (temperature: 15°C, 48 h) and 0.66 (temperature: 37°C, 24 h).

In the case of `O=C1CC(N2CCCCCC2)C(=O)N1c1ccccc1` (stereo not drawn), the “plate-normalized OD600 growth” value is, setting by setting: (temperature: 15°C, 48 h) 0.252; (temperature: 37°C, 24 h) 0.62.

As to `[O-][n+]1onc2c(-c3ccccc3)nnc(-c3ccccc3)c21`, the “plate-normalized OD600 growth” value reads like this: (temperature: 15°C, 48 h) 0.254; (temperature: 37°C, 24 h) 0.616.

Take `Cn1c(C=O)nc2cc([N+](=O)[O-])ccc21`: the “plate-normalized OD600 growth” value turned out to be 0.241 (temperature: 15°C, 48 h) and 0.625 (temperature: 37°C, 24 h).

Regarding `O=C(O)c1cc(NC(=O)C(c2ccccc2)c2ccccc2)cc(C(=O)O)c1`, the “plate-normalized OD600 growth” value (temperature: 15°C, 48 h) stood at 0.254 and the “plate-normalized OD600 growth” value (temperature: 37°C, 24 h) amounted to 0.624.

Regarding `CCc1nc2c([nH]1)c(=O)n(C)c(=O)n2C`, the “plate-normalized OD600 growth” value was determined as 0.244 (temperature: 15°C, 48 h) and 0.597 (temperature: 37°C, 24 h).

For `CSc1nnnn1-c1ccccc1`, the “plate-normalized OD600 growth” value runs as follows: (temperature: 15°C, 48 h) 0.245; (temperature: 37°C, 24 h) 0.606.

For the compound `CCCOc1ccc(N2C(=O)CC(N3CCN(c4ccccn4)CC3)C2=O)cc1` (stereo not drawn), the “plate-normalized OD600 growth” value reads like this: (temperature: 15°C, 48 h) 0.247; (temperature: 37°C, 24 h) 0.623.

For the compound `COc1ccc(OCCCCN2CCCCC2)cc1`, the “plate-normalized OD600 growth” value stood at 0.249 (temperature: 15°C, 48 h) and 0.614 (temperature: 37°C, 24 h).

With `NC1COS(=O)OC1c1ccc([N+](=O)[O-])cc1` (stereo not drawn), the “plate-normalized OD600 growth” value by setting is: (temperature: 15°C, 48 h) 0.254; (temperature: 37°C, 24 h) 0.607.

Regarding `N#CC1=C(N)OC2=C(C(=O)CCC2)C1c1ccccc1[N+](=O)[O-]` (stereo not drawn), the “plate-normalized OD600 growth” value stood at 0.263 (temperature: 15°C, 48 h) and 0.624 (temperature: 37°C, 24 h).

On to `O=C(O)c1ccc(S(=O)(=O)c2ccc(O)cc2)cc1`, for which the “plate-normalized OD600 growth” value reads like this: (temperature: 15°C, 48 h) 0.247; (temperature: 37°C, 24 h) 0.592.

Regarding `CC(NC(=O)Nc1cccc(Cl)c1)c1ccccc1` (stereo not drawn), the “plate-normalized OD600 growth” value (temperature: 15°C, 48 h) stood at 0.244 and the “plate-normalized OD600 growth” value (temperature: 37°C, 24 h) was determined as 0.635.

With `O=S(=O)(c1ccccc1)c1cccc(S(=O)(=O)N2CCOCC2)c1`, the “plate-normalized OD600 growth” value was 0.227 (temperature: 15°C, 48 h) and 0.595 (temperature: 37°C, 24 h).

With `N#CSC(CS(=O)(=O)c1cccc([N+](=O)[O-])c1)c1ccccc1` (stereo not drawn), the “plate-normalized OD600 growth” value by setting is: (temperature: 15°C, 48 h) 0.268; (temperature: 37°C, 24 h) 0.652.

In the case of `CN(C)c1ccc(C2CC(=O)NC3=C2C(=O)CC(C)(C)C3)cc1` (stereo not drawn), the “plate-normalized OD600 growth” value runs as follows: (temperature: 15°C, 48 h) 0.242; (temperature: 37°C, 24 h) 0.65.

Turning to `Nc1ccc(-c2nc3cc(N)ccc3s2)c(O)c1`, the “plate-normalized OD600 growth” value (temperature: 15°C, 48 h) was 0.247 and the “plate-normalized OD600 growth” value (temperature: 37°C, 24 h) worked out at 0.6.

Turning to `Cc1cc(C)n2nc(C)c(-c3ccc(Cl)cc3)c2n1`, the “plate-normalized OD600 growth” value came to 0.278 (temperature: 15°C, 48 h) and 0.662 (temperature: 37°C, 24 h).

Regarding `O=c1[nH]c(SC2C=CCCC2)nc2sc3c(c12)CCCC3` (stereo not drawn), the “plate-normalized OD600 growth” value is, setting by setting: (temperature: 15°C, 48 h) 0.248; (temperature: 37°C, 24 h) 0.614.

Consider `O=C(CSc1ccccn1)c1ccc(Br)cc1`, for which the “plate-normalized OD600 growth” value by setting is: (temperature: 15°C, 48 h) 0.233; (temperature: 37°C, 24 h) 0.629.

For the compound `O=C(O)c1ccc(S(=O)(=O)c2ccc3c(c2)C(=O)N(c2nccs2)C3=O)cc1`, the “plate-normalized OD600 growth” value came out at 0.241 (temperature: 15°C, 48 h) and 0.624 (temperature: 37°C, 24 h).

Consider `Cc1cc(C)n(-c2cccc3cccnc23)n1`, for which the “plate-normalized OD600 growth” value (temperature: 15°C, 48 h) was 0.258 and the “plate-normalized OD600 growth” value (temperature: 37°C, 24 h) is 0.612.

As to `O=S(=O)(NCC1(c2ccccc2)CCCC1)c1ccccc1`, the “plate-normalized OD600 growth” value is, setting by setting: (temperature: 15°C, 48 h) 0.238; (temperature: 37°C, 24 h) 0.6.

Regarding `O=C(Nc1ccc(Cl)cc1)c1ccccc1Br`, the “plate-normalized OD600 growth” value runs as follows: (temperature: 15°C, 48 h) 0.264; (temperature: 37°C, 24 h) 0.633.

Take `COc1cccc(OC)c1C(=O)Nc1cccc(C)c1`: the “plate-normalized OD600 growth” value (temperature: 15°C, 48 h) was 0.275 and the “plate-normalized OD600 growth” value (temperature: 37°C, 24 h) was determined as 0.647.

`Cc1ccc(C(NC(N)=O)c2ccccc2C)cc1` (stereo not drawn): the “plate-normalized OD600 growth” value by setting is: (temperature: 15°C, 48 h) 0.244; (temperature: 37°C, 24 h) 0.605.

Values taken from the supplement of paper PMC4371806.
